The test has as its target T1, ExoY^K81M-TAP (P. aeruginosa PAO1) (UniProt Q9I1S4).
T1 sequence: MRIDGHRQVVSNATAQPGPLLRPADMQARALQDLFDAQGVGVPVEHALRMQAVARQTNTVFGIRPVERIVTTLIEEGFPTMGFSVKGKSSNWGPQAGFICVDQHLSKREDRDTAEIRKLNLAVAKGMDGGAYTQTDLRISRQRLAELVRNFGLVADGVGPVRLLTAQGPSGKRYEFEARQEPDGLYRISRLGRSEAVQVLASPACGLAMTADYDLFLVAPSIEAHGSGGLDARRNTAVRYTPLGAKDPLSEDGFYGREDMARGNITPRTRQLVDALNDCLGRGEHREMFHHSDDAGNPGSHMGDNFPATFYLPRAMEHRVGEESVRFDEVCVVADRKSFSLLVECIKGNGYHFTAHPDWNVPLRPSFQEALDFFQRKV
Description: affinity purification with mass spectrometry.

Results are given in words; binding and its absence hold for the method and conditions named. In cells and extracts the contact can be indirect. A yes stands for co-enrichment or nearness to the bait. Other partners may have been found.

As for “yeast actin (Act1) (from UniProt P60010 1-375)”, the binding result is reported as “binds”.

For the origin of these results see PMC5150216.
